The text below walks through data of the supplement of paper PMC5949888.

Most values lie at the floor of the assay. Slopes are relative: functional sequences can read slightly below zero.

The data set relates to Saccharomyces cerevisiae PS128 hsf1 delta, HSF1(1-493) fusion. Kind of data set: growth estimate (transactivation domain function in HSF1 fusion, heat-shock survival) (a.u. (slope of normalised read count over time)); higher = stronger growth at 37°C, i.e. more transactivation activity. As to conditions: library: random library.
As for GYYDRDQTPAKS, the growth estimate was under -0.25. The value for HVAYYPGSWLEVKFYPFGIA was under -0.25. The value for LPTLVHWRQRARHAAPFRDV was under -0.25. With AVIRCKELLERSRMGANGTR the figure was under -0.25. For LDGHETSVTSVVWSADPGII, the growth estimate was under -0.25. Consider RPIPAI, for which the growth estimate is under -0.25. As to TTTGYIWA, the growth estimate was under -0.25.

On to RGSSRVGY, for which the growth estimate is -0.248. GTYRSDL: the growth estimate was under -0.25. Consider TLYKTVRGSPAP, for which the growth estimate was -0.219. With HLEINGAR the figure was under -0.25; with NDSFTLPYSLRITILEIRDR, -0.241; with AEAVHFSVSHYEESLFFVGR, -0.246. With VDLSSIDYENCTPAEKMTRS the figure was under -0.25; with EITRVVYSADGHMGTTWAIG, under -0.25.

As to RTDWLVWRICVKNPSQVVEG, the growth estimate was under -0.25. Consider TKQHLNL, for which the growth estimate was under -0.25.

For the substance PLDYVLVGTTRVSRSS, the growth estimate was under -0.25. In the case of AASCSG, the growth estimate is under -0.25. The value for CGYVTPHQS was under -0.25. On to GEGRSYVLKECGL, for which the growth estimate is under -0.25. The value for VRQLV was under -0.25. The value for ERQTYTNGTGAHPSSLGRGS was under -0.25; that for AYHRSVLCGRRESYSNI was under -0.25; that for AYWGLAT was under -0.25. With SLKQHVSSRFTK the figure was under -0.25; with HWKVSTFGSRTF, under -0.25.

As for VQHGGGSWLVLDVVGGPDAV, the growth estimate was under -0.25. Take CRYGWPAFPSVEQVPDGLQA: the growth estimate is under -0.25.

In the case of HVSGT, the growth estimate was under -0.25. Consider DIEFGGQSPEMGLD, for which the growth estimate is -0.0912. Turning to MFSLSVNSIQCPPYRTPSLA, the growth estimate was under -0.25.

With GGGR, the growth estimate is under -0.25. With QPNRTFPWLPGTGGTD the figure was under -0.25; with PDNILLTVWGIVSVCTLETG, under -0.25.

Turning to GRGSLCRVIHCIKSDVVPAG, the growth estimate was under -0.25. With EDSGQETSEGLISGNIVSFS the figure was -0.198; with VDR, under -0.25. As to CGAGSIHLSVHILQSPQGVP, the growth estimate is under -0.25. With GRSARAKASGDLYAVSPHRV, the growth estimate is under -0.25. With VCPCASTTRNLRGVIVELVH the figure was under -0.25. The value for LCTQDTRYWILSLMRWSDRF was under -0.25; that for EIM was under -0.25; that for AGDG was under -0.25. RYTRPHRSECAVRHVDGVDV: the growth estimate was under -0.25. Take GFMQVPEAGGTQT: the growth estimate is under -0.25. Take SHIRTKGTNGGSSRSVFVYV: the growth estimate is under -0.25. On to WVVGC, for which the growth estimate was under -0.25.

Regarding ERVVVPAVRQGNPVRIAALS, the growth estimate was under -0.25. ARITMG: the growth estimate is under -0.25.

For the substance YIITFFPRWPCVVLFHDCLP, the growth estimate was under -0.25. The value for YVWAGASVNRAAVRVCSLWI was under -0.25; that for GPPGWFRIPPSLGSQSRRIF was under -0.25; that for RALVATVEQGGESFGSLATM was -0.229. Take RSHGPM: the growth estimate is under -0.25.

GRNDVVPEISTQG: the growth estimate was under -0.25. With TLVSNLASLLLYAHSSSSRP the figure was under -0.25. Consider YWSCPT, for which the growth estimate is under -0.25.

Consider CPVYQLRGYNRGTRIPLLHI, for which the growth estimate was under -0.25. With FLR the figure was under -0.25; with MPSFCYWTCSGLGTRLIRFV, under -0.25. The value for PERPRTRRFLFV was under -0.25; that for HNSSFFRTGYLLAVQPRSET was under -0.25; that for GSVAASQDGSSS was under -0.25. With SATTSPNPEKFY the figure was under -0.25. Take GSTAIQPLRCR: the growth estimate was under -0.25.

On to SRRLARIDCSDSL, for which the growth estimate was under -0.25. With PVTRPS, the growth estimate is under -0.25. With YFRVGFINGKLDEDLV the figure was under -0.25; with SGVPLPWFLSLLAECRAADV, under -0.25. The value for GEICADLMLTARVGSGPRVR was under -0.25; that for GGCDPVHGVSGP was under -0.25. With SCAVIGKGNHYLCGQGLVHT the figure was under -0.25.

Regarding GPGRCYTSVRSPYDRQALFW, the growth estimate is under -0.25. For the substance RYSTWV, the growth estimate was under -0.25. The value for DSGT was 0.0827; that for LLYVCPRVVRLSARLACRWP was under -0.25; that for PVAGH was under -0.25.
